Results reported in the supplement of paper PMC4635364.
Counter-ions that a name gives are not always drawn. The list shows a part of the results. Single values are uncertain here, since repeats match poorly.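 Cells: ReNCell VM human fetal ventral-midbrain neural progenitors, differentiated mitogen-free. Blinded raters compared doublecortin-stained (early neurons) or tyrosine hydroxylase-stained (dopaminergic neurons) images with untreated wells, where 0 means no change. After repeats and both raters were averaged, compounds scoring 2 or above became hits for retesting.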

Legend:
ReNCell VM [1] = experiment: neuronal differentiation score (DCX+ cell fraction vs untreated, manual image score) (score (-3 to 3)); higher = more neuronal differentiation; conditions: 2 uM, 2 weeks
ReNCell VM [2] = experiment: dopaminergic neuron differentiation score (TH+ cell fraction vs untreated, manual image score) (score (0 to 3)); higher = more TH+ dopaminergic neuron differentiation; conditions: 2 uM, 4 weeks, BDNF 10 ng/ml + GDNF 10 ng/ml

Oc1ccc2c3c1O[C@H]1[C@@H](O)CC[C@@]4(O)[C@@H](C2)N(CC2CCC2)CC[C@]314 [Nalbuphine hydrochloride]
inactive: neuronal differentiation score (ReNCell VM [1]; library: LOPAC) 0 | neuronal differentiation score (ReNCell VM [1]; library: Prestwick) 0 | dopaminergic neuron differentiation score (ReNCell VM [2]; library: LOPAC) 0 | dopaminergic neuron differentiation score (ReNCell VM [2]; library: Prestwick) 0

CCC1=C[C@H]2CN3CCc4c([nH]c5ccccc45)[C@](C(=O)OC)(C2)[C@H]13 [Catharanthine]
inactive: neuronal differentiation score (ReNCell VM [1]; library: Phytochemical) 0 | neuronal differentiation score (ReNCell VM [1]; library: Prestwick) 0 | dopaminergic neuron differentiation score (ReNCell VM [2]; library: Phytochemical) 0 | dopaminergic neuron differentiation score (ReNCell VM [2]; library: Prestwick) 0

c1ccc2c(c1)[I+]c1ccccc1-2 [Diphenyleneiodonium chloride]
inactive: neuronal differentiation score (ReNCell VM [1]; library: LOPAC) 0 | neuronal differentiation score (ReNCell VM [1]; library: Tocriscreen) 0 | dopaminergic neuron differentiation score (ReNCell VM [2]; library: LOPAC) 0 | dopaminergic neuron differentiation score (ReNCell VM [2]; library: Tocriscreen) 0

CCCN1CCC[C@@H]2Cc3n[nH]cc3C[C@H]21 [(-)-Quinpirole hydrochloride]
inactive: neuronal differentiation score (ReNCell VM [1]; library: LOPAC) 0 | neuronal differentiation score (ReNCell VM [1]; library: Phytochemical) 0 | neuronal differentiation score (ReNCell VM [1]; library: Tocriscreen) 0 | dopaminergic neuron differentiation score (ReNCell VM [2]; library: LOPAC) 0 | dopaminergic neuron differentiation score (ReNCell VM [2]; library: Phytochemical) 0 | dopaminergic neuron differentiation score (ReNCell VM [2]; library: Tocriscreen) 0

COc1ccc(Cc2nccc3cc(OC)c(OC)cc23)cc1OC [Papaverine hydrochloride]
inactive: neuronal differentiation score (ReNCell VM [1]; library: LOPAC) 0 | neuronal differentiation score (ReNCell VM [1]; library: Phytochemical) 0 | neuronal differentiation score (ReNCell VM [1]; library: Prestwick) 0 | dopaminergic neuron differentiation score (ReNCell VM [2]; library: LOPAC) 1 | dopaminergic neuron differentiation score (ReNCell VM [2]; library: Phytochemical) 0 | dopaminergic neuron differentiation score (ReNCell VM [2]; library: Prestwick) 0

C[C@@]12C(=O)OC(=O)[C@]1(C)[C@H]1CC[C@@H]2O1 [Cantharidin]
inactive: neuronal differentiation score (ReNCell VM [1]; library: LOPAC) 0 | neuronal differentiation score (ReNCell VM [1]; library: Phytochemical) 0 | neuronal differentiation score (ReNCell VM [1]; library: Tocriscreen) 0 | dopaminergic neuron differentiation score (ReNCell VM [2]; library: LOPAC) 0 | dopaminergic neuron differentiation score (ReNCell VM [2]; library: Phytochemical) 0 | dopaminergic neuron differentiation score (ReNCell VM [2]; library: Tocriscreen) 0

CN1CCC(c2c[nH]c3ccc(O)cc23)CC1
inactive: neuronal differentiation score (ReNCell VM [1]; library: LOPAC) 0 | neuronal differentiation score (ReNCell VM [1]; library: Tocriscreen) 0 | dopaminergic neuron differentiation score (ReNCell VM [2]; library: LOPAC) 0 | dopaminergic neuron differentiation score (ReNCell VM [2]; library: Tocriscreen) 0

O=c1[nH]c2ccccc2n1C1CCN(CCCC(c2ccc(F)cc2)c2ccc(F)cc2)CC1 [Pimozide]
inactive: neuronal differentiation score (ReNCell VM [1]; library: LOPAC) 0 | neuronal differentiation score (ReNCell VM [1]; library: Prestwick) 0 | neuronal differentiation score (ReNCell VM [1]; library: Tocriscreen) 0 | dopaminergic neuron differentiation score (ReNCell VM [2]; library: LOPAC) 0 | dopaminergic neuron differentiation score (ReNCell VM [2]; library: Prestwick) 0 | dopaminergic neuron differentiation score (ReNCell VM [2]; library: Tocriscreen) 0

COc1ccc(CCN2CCC(Nc3nc4ccccc4n3Cc3ccc(F)cc3)CC2)cc1 [Astemizole]
inactive: neuronal differentiation score (ReNCell VM [1]; library: Prestwick) 0 | neuronal differentiation score (ReNCell VM [1]; library: Tocriscreen) 0 | dopaminergic neuron differentiation score (ReNCell VM [2]; library: Prestwick) 0 | dopaminergic neuron differentiation score (ReNCell VM [2]; library: Tocriscreen) 0

CN(C)C(=O)Oc1cccc([N+](C)(C)C)c1 [Neostigmine bromide]
inactive: neuronal differentiation score (ReNCell VM [1]; library: LOPAC) 0 | neuronal differentiation score (ReNCell VM [1]; library: Phytochemical) 0 | neuronal differentiation score (ReNCell VM [1]; library: Prestwick) 0 | dopaminergic neuron differentiation score (ReNCell VM [2]; library: LOPAC) 0 | dopaminergic neuron differentiation score (ReNCell VM [2]; library: Phytochemical) 0 | dopaminergic neuron differentiation score (ReNCell VM [2]; library: Prestwick) 0

CCn1cc(C(=O)O)c(=O)c2cc3c(cc21)OCO3 [Oxolinic acid]
inactive: neuronal differentiation score (ReNCell VM [1]; library: LOPAC) 0 | neuronal differentiation score (ReNCell VM [1]; library: Prestwick) 0 | dopaminergic neuron differentiation score (ReNCell VM [2]; library: LOPAC) 0 | dopaminergic neuron differentiation score (ReNCell VM [2]; library: Prestwick) 0

COc1ccc(C(=O)N2CCCC2=O)cc1 [Aniracetam]
inactive: neuronal differentiation score (ReNCell VM [1]; library: LOPAC) 0 | neuronal differentiation score (ReNCell VM [1]; library: Prestwick) 0 | neuronal differentiation score (ReNCell VM [1]; library: Tocriscreen) 0 | dopaminergic neuron differentiation score (ReNCell VM [2]; library: LOPAC) 0 | dopaminergic neuron differentiation score (ReNCell VM [2]; library: Prestwick) 0 | dopaminergic neuron differentiation score (ReNCell VM [2]; library: Tocriscreen) 0

In the list so far, these contain fluorine:
O=c1[nH]c2ccccc2n1C1CCN(CCCC(c2ccc(F)cc2)c2ccc(F)cc2)CC1 [Pimozide]
inactive: neuronal differentiation score (ReNCell VM [1]; library: LOPAC) 0 | neuronal differentiation score (ReNCell VM [1]; library: Prestwick) 0 | neuronal differentiation score (ReNCell VM [1]; library: Tocriscreen) 0 | dopaminergic neuron differentiation score (ReNCell VM [2]; library: LOPAC) 0 | dopaminergic neuron differentiation score (ReNCell VM [2]; library: Prestwick) 0 | dopaminergic neuron differentiation score (ReNCell VM [2]; library: Tocriscreen) 0

COc1ccc(CCN2CCC(Nc3nc4ccccc4n3Cc3ccc(F)cc3)CC2)cc1 [Astemizole]
inactive: neuronal differentiation score (ReNCell VM [1]; library: Prestwick) 0 | neuronal differentiation score (ReNCell VM [1]; library: Tocriscreen) 0 | dopaminergic neuron differentiation score (ReNCell VM [2]; library: Prestwick) 0 | dopaminergic neuron differentiation score (ReNCell VM [2]; library: Tocriscreen) 0

The results go on:

c1ccc2c(c1)OCC(C1=NCCN1)O2 (stereo not drawn) [Idazoxan hydrochloride]
inactive: neuronal differentiation score (ReNCell VM [1]; library: LOPAC) 0 | neuronal differentiation score (ReNCell VM [1]; library: Prestwick) 0 | neuronal differentiation score (ReNCell VM [1]; library: Tocriscreen) 0 | dopaminergic neuron differentiation score (ReNCell VM [2]; library: LOPAC) 0 | dopaminergic neuron differentiation score (ReNCell VM [2]; library: Prestwick) 0 | dopaminergic neuron differentiation score (ReNCell VM [2]; library: Tocriscreen) 0

C=CCN1C[C@H](C)N([C@H](c2ccc(C(=O)N(CC)CC)cc2)c2cccc(OC)c2)C[C@H]1C
inactive: neuronal differentiation score (ReNCell VM [1]; library: LOPAC) 0 | neuronal differentiation score (ReNCell VM [1]; library: Tocriscreen) 0 | dopaminergic neuron differentiation score (ReNCell VM [2]; library: LOPAC) 0 | dopaminergic neuron differentiation score (ReNCell VM [2]; library: Tocriscreen) 0

C1CCc2nnnn2CC1 [Pentylenetetrazole]
inactive: neuronal differentiation score (ReNCell VM [1]; library: LOPAC) 0 | neuronal differentiation score (ReNCell VM [1]; library: Prestwick) 0 | neuronal differentiation score (ReNCell VM [1]; library: Tocriscreen) 0 | dopaminergic neuron differentiation score (ReNCell VM [2]; library: LOPAC) 0 | dopaminergic neuron differentiation score (ReNCell VM [2]; library: Prestwick) 0 | dopaminergic neuron differentiation score (ReNCell VM [2]; library: Tocriscreen) 0

O=c1[nH]c2ccccc2n1CCCN1CCC(n2c(=O)[nH]c3cc(Cl)ccc32)CC1 [Domperidone]
inactive: neuronal differentiation score (ReNCell VM [1]; library: LOPAC) 0 | neuronal differentiation score (ReNCell VM [1]; library: Prestwick) 0 | neuronal differentiation score (ReNCell VM [1]; library: Tocriscreen) 0 | dopaminergic neuron differentiation score (ReNCell VM [2]; library: LOPAC) 0 | dopaminergic neuron differentiation score (ReNCell VM [2]; library: Prestwick) 0 | dopaminergic neuron differentiation score (ReNCell VM [2]; library: Tocriscreen) 0

CC[C@@H](CO)NC(=O)[C@@H]1C=C2c3cccc4c3c(cn4C)C[C@H]2N(C)C1 [Methysergide maleate]
inactive: neuronal differentiation score (ReNCell VM [1]; library: LOPAC) 0 | neuronal differentiation score (ReNCell VM [1]; library: Tocriscreen) 0 | dopaminergic neuron differentiation score (ReNCell VM [2]; library: LOPAC) 0 | dopaminergic neuron differentiation score (ReNCell VM [2]; library: Tocriscreen) 0

O=C(O)CCCc1ccc(N(CCCl)CCCl)cc1 [Chlorambucil]
inactive: neuronal differentiation score (ReNCell VM [1]; library: LOPAC) 0 | neuronal differentiation score (ReNCell VM [1]; library: Prestwick) 0 | dopaminergic neuron differentiation score (ReNCell VM [2]; library: LOPAC) 0 | dopaminergic neuron differentiation score (ReNCell VM [2]; library: Prestwick) 0

C=C(C)c1cc2cc(C(C)=O)c(O)cc2o1 [euparin]
inactive: neuronal differentiation score (ReNCell VM [1]; library: Natural) 0 | dopaminergic neuron differentiation score (ReNCell VM [2]; library: Natural) 0

CCCN(CCC)C1CCc2cccc(O)c2C1 (stereo not drawn) [8-Hydroxy-DPAT hydrobromide]
inactive: neuronal differentiation score (ReNCell VM [1]; library: Tocriscreen) 0 | dopaminergic neuron differentiation score (ReNCell VM [2]; library: Tocriscreen) 0

CC(C)[C@H]1C(=O)O[C@@H]2CCN3CC=C(COC(=O)[C@](C)(O)[C@]1(C)O)[C@H]23 [Trichodesmine]
inactive: neuronal differentiation score (ReNCell VM [1]; library: Phytochemical) 0 | dopaminergic neuron differentiation score (ReNCell VM [2]; library: Phytochemical) 0

C[C@H]1O[C@@H](O[C@H]2[C@@H](O)C[C@H](O[C@H]3[C@@H](O)C[C@H](O[C@H]4CC[C@@]5(C)[C@H](CC[C@@H]6[C@@H]5CC[C@]5(C)[C@@H](C7=CC(=O)OC7)[C@@H](O)C[C@]65O)C4)O[C@@H]3C)O[C@@H]2C)C[C@H](O)[C@@H]1O [Gitoxin]
inactive: neuronal differentiation score (ReNCell VM [1]; library: Phytochemical) 0 | dopaminergic neuron differentiation score (ReNCell VM [2]; library: Phytochemical) 0
